Laboratory results published in PubChem BioAssay AID330 (DTP/NCI, 2004).
The list does not hold the whole screen: it gathers some chemical classes. Other doses and runs of a compound may be missing. T/C gives the treated animals as a percentage of the vehicle group. Some doses have a count of surviving animals in place of a T/C: the source holds a T/C of zero for them, seemingly a mark for toxic or unscored doses. Some doses without a T/C left all or most animals alive at the check, yet need not have been tolerated: survival well below the control is almost never listed, so the zero probably covers shortened survival too. Counts of survivors are from the toxicity check (mostly the fifth day) where no day follows; animals may have died later. Schedules are NCI's codes, read here as Q, the interval in days (D) or hours (H), X, the number of doses. Some doses were run more than once; the results are listed from low to high. For survival time, this PubChem deposit counts one and a half times the control or more as active, and values a quarter to a half above the control carry no call in these data; other NCI protocols may use other cut-offs. Some T/C values are marked as having no survivor count here; that says nothing about deaths at the dose. Some T/C values are followed by the survivors on the day toxicity was checked, most often the fifth; without a count or a note in brackets, all were alive then.

System: P388 leukemia ip, CD2F1 mice, survival T/C
Assay: NCI In Vivo Anticancer Drug Screen. Data for tumor model P388 Leukemia (intraperitoneal) in CD2F1 (CDF1) mice
Details: T/C endpoint: median survival time, higher T/C = longer survival
[1] = dose: 100.0 mg/kg/injection, schedule: Q01DX009 (ip), vehicle: saline
[2] = dose: 200.0 mg/kg/injection, schedule: Q01DX009 (ip), vehicle: saline
[3] = dose: 25.0 mg/kg/injection, schedule: Q01DX005 (ip), vehicle: saline with Tween-80
[4] = dose: 50.0 mg/kg/injection, schedule: Q01DX005 (ip), vehicle: saline with Tween-80
[5] = dose: 100.0 mg/kg/injection, schedule: Q01DX005 (ip), vehicle: saline with Tween-80
[6] = dose: 50.0 mg/kg/injection, schedule: Q04DX003 (ip), vehicle: Klucel (hydroxypropylcellulose) (HPC)
[7] = dose: 100.0 mg/kg/injection, schedule: Q04DX003 (ip), vehicle: Klucel (hydroxypropylcellulose) (HPC)
[8] = dose: 200.0 mg/kg/injection, schedule: Q04DX003 (ip), vehicle: Klucel (hydroxypropylcellulose) (HPC)
[9] = dose: 400.0 mg/kg/injection, schedule: Q04DX003 (ip), vehicle: Klucel (hydroxypropylcellulose) (HPC)
[10] = dose: 50.0 mg/kg/injection, schedule: Q01DX009 (ip), vehicle: saline with Tween-80
[11] = dose: 25.0 mg/kg/injection, schedule: Q01DX009 (ip), vehicle: saline
[12] = dose: 12.5 mg/kg/injection, schedule: Q01DX009 (ip), vehicle: saline with Tween-80
[13] = dose: 25.0 mg/kg/injection, schedule: Q01DX009 (ip), vehicle: saline with Tween-80

O=C(CCC([N+](=O)[O-])([N+](=O)[O-])[N+](=O)[O-])c1ccccc1 was tested, and the T/C [1] was 111 % of control, the T/C [2] was 101 % of control [5 of 6 alive] and the T/C (dose: 400.0 mg/kg/injection, schedule: Q01DX009 (ip), vehicle: saline) was 111 % of control [5 of 6 alive].

In the case of O=P1(Cl)OC(c2ccc(Cl)cc2Cl)=CCN1c1ccc(Cl)cc1 (configuration not stated), the T/C [3] was 104 % of control, the T/C [4] was 105 % of control and the T/C [5] was 113 % of control.

In the case of CN(C)c1ncnc2c1NP(C)(=O)N2 (configuration not stated), the T/C [6] was 100 % of control [survivor count not shown], the T/C [7] was 105 % of control [survivor count not shown] and the T/C [8] was 94 % of control [survivor count not shown]. The T/C [9] was 96 % of control [survivor count not shown].

In the case of CN=C(NP(=O)(OC)OC)OC, the T/C (dose: 12.5 mg/kg/injection, schedule: Q01DX009 (ip), vehicle: water) was 90 % of control, the T/C (dose: 25.0 mg/kg/injection, schedule: Q01DX009 (ip), vehicle: water) was 90 % of control and the T/C (dose: 50.0 mg/kg/injection, schedule: Q01DX009 (ip), vehicle: water) was 113 % of control. For the same compound, the T/C (dose: 100.0 mg/kg/injection, schedule: Q01DX009 (ip), vehicle: water) was 111 % of control.

For O=[N+]([O-])c1ccc(N/N=C/C=N/Nc2ccc([N+](=O)[O-])cc2[N+](=O)[O-])c([N+](=O)[O-])c1, the T/C [6] was 104 % of control, the T/C [7] was 103 % of control and the T/C [8] was 97 % of control. The T/C [9] was 97 % of control.

For C/C(=C/C(=O)O)[As](=O)(O)O, the T/C (dose: 7.5 mg/kg/injection, schedule: Q01DX009 (ip), vehicle: saline with Tween-80) was 99 % of control, the T/C (dose: 15.0 mg/kg/injection, schedule: Q01DX009 (ip), vehicle: saline with Tween-80) was 100 % of control and the T/C (dose: 30.0 mg/kg/injection, schedule: Q01DX009 (ip), vehicle: saline with Tween-80) was 97 % of control.

For CN(C)C(=O)Oc1ccc(/C=N/NC(N)=S)nc1, the T/C [10] was 145 % of control, the T/C (dose: 100.0 mg/kg/injection, schedule: Q01DX009 (ip), vehicle: saline with Tween-80) was 146 % of control and the survivor count (dose: 200.0 mg/kg/injection, schedule: Q01DX009 (ip), vehicle: saline with Tween-80) was 4 of 6.

For CN(N)P(=O)(Cl)C(Cl)(Cl)Cl (configuration not stated), the T/C (dose: 60.0 mg/kg/injection, schedule: Q01DX005 (ip), vehicle: saline) was 98 % of control, the T/C (dose: 120.0 mg/kg/injection, schedule: Q01DX005 (ip), vehicle: saline) was 103 % of control and the survivor count (dose: 240.0 mg/kg/injection, schedule: Q01DX005 (ip), vehicle: saline) was 0 of 6.

In the case of Nc1c([N+](=O)[O-])cc([N+](=O)[O-])c(-c2nnc(-c3c([N+](=O)[O-])cc([N+](=O)[O-])c(N)c3[N+](=O)[O-])o2)c1[N+](=O)[O-], the T/C (dose: 50.0 mg/kg/injection, schedule: Q04DX002 (ip), vehicle: saline with Tween-80) was 102 % of control, the T/C (dose: 100.0 mg/kg/injection, schedule: Q04DX002 (ip), vehicle: saline with Tween-80) was 109 % of control and the T/C (dose: 200.0 mg/kg/injection, schedule: Q04DX002 (ip), vehicle: saline with Tween-80) was 100 % of control.

For CC(C)(C)C1COP(O)OC1 (configuration not stated), the T/C (dose: 12.5 mg/kg/injection, schedule: Q01DX009 (ip), vehicle: saline) was 101 % of control, the T/C [11] was 101 % of control and the survivor count (dose: 50.0 mg/kg/injection, schedule: Q01DX009 (ip), vehicle: saline) was 1 of 6 and 2 of 6. For the same compound, the survivor count [1] was 0 of 6 and the survivor count [2] was 0 of 6.

For O=C(CCC([N+](=O)[O-])([N+](=O)[O-])[N+](=O)[O-])OCC([N+](=O)[O-])([N+](=O)[O-])[N+](=O)[O-], the T/C (dose: 100.0 mg/kg/injection, schedule: Q04DX003 (ip), vehicle: saline) was 97 % of control, the T/C (dose: 200.0 mg/kg/injection, schedule: Q04DX003 (ip), vehicle: saline) was 98 % of control and the T/C (dose: 400.0 mg/kg/injection, schedule: Q04DX003 (ip), vehicle: saline) was 103 % of control [5 of 6 alive].

With Cn1cc(N(CCCl)CCCl)c(=O)[nH]c1=O the T/C (dose: 1.05 mg/kg/injection, schedule: Q04DX003 (ip), vehicle: saline) was 159 % of control, the T/C (dose: 1.6 mg/kg/injection, schedule: Q04DX003 (ip), vehicle: saline) was 213 % of control and the T/C (dose: 2.4 mg/kg/injection, schedule: Q04DX003 (ip), vehicle: saline) was 250 % of control.

O[C@H](CNCCBr)[C@@H](O)CNCCBr was tested, and the T/C (dose: 6.6 mg/kg/injection, schedule: Q04DX003 (ip), vehicle: saline) was 272 % of control, the survivor count (dose: 10.0 mg/kg/injection, schedule: Q04DX003 (ip), vehicle: saline) was 4 of 6 and the survivor count (dose: 15.0 mg/kg/injection, schedule: Q04DX003 (ip), vehicle: saline) was 0 of 6.

O=C(Cn1nnc2ccccc21)N(CCCl)CCCl was tested, and the T/C (dose: 30.0 mg/kg/injection, schedule: Q01DX005 (ip), vehicle: saline with Tween-80) was 89 % of control, the T/C (dose: 60.0 mg/kg/injection, schedule: Q01DX005 (ip), vehicle: saline with Tween-80) was 108 and 111 % of control and the T/C (dose: 120.0 mg/kg/injection, schedule: Q01DX005 (ip), vehicle: saline with Tween-80) was 113 [5 of 6 alive] and 133 % of control [5 of 6 alive]. The T/C (dose: 240.0 mg/kg/injection, schedule: Q01DX005 (ip), vehicle: saline with Tween-80) was 155 and 178 % of control.

In the case of O=C1c2cc([N+](=O)[O-])cc([N+](=O)[O-])c2-c2c1cc([N+](=O)[O-])cc2[N+](=O)[O-], the T/C [12] was 122 % of control [survivor count not shown], the T/C (dose: 12.5 mg/kg/injection, schedule: Q04DX003 (ip), vehicle: saline with Tween-80) was 115 % of control [survivor count not shown] and the T/C (dose: 16.5 mg/kg/injection, schedule: Q01DX009 (ip), vehicle: saline) was 108 % of control [survivor count not shown]. The T/C [13] was 136 % of control [survivor count not shown], the T/C [11] was 104 % of control [survivor count not shown] and the T/C (dose: 25.0 mg/kg/injection, schedule: Q04DX003 (ip), vehicle: saline with Tween-80) was 110 % of control [survivor count not shown]. For the same compound, the T/C (dose: 37.5 mg/kg/injection, schedule: Q01DX009 (ip), vehicle: saline) was 108 % of control [survivor count not shown], the T/C [10] was 127 % of control [survivor count not shown] and the T/C (dose: 50.0 mg/kg/injection, schedule: Q04DX003 (ip), vehicle: saline with Tween-80) was 100 % of control [survivor count not shown].

O=c1oc(NCCCl)nc2ccccc12 was tested, and the T/C [3] was 107 % of control, the T/C [4] was 100 % of control and the T/C [5] was 101 % of control. For the same compound, the T/C (dose: 200.0 mg/kg/injection, schedule: Q01DX005 (ip), vehicle: saline with Tween-80) was 108 % of control.

COc1ccc2c(c1)[C@]1(C)CC[C@@H](O2)[C@]12CO2 was tested, and the T/C (dose: 10.0 mg/kg/injection, schedule: Q01DX009 (ip), vehicle: Klucel (hydroxypropylcellulose) (HPC)) was 95 and 104 % of control, the T/C [12] was 87 % of control and the T/C (dose: 20.0 mg/kg/injection, schedule: Q01DX009 (ip), vehicle: Klucel (hydroxypropylcellulose) (HPC)) was 100 and 108 % of control. For the same compound, the T/C [13] was 94 % of control, the T/C (dose: 40.0 mg/kg/injection, schedule: Q01DX009 (ip), vehicle: Klucel (hydroxypropylcellulose) (HPC)) was 101 and 112 % of control and the T/C [10] was 107 % of control. For the same compound, the T/C (dose: 80.0 mg/kg/injection, schedule: Q01DX009 (ip), vehicle: Klucel (hydroxypropylcellulose) (HPC)) was 104 and 134 % of control and the T/C (dose: 160.0 mg/kg/injection, schedule: Q01DX009 (ip), vehicle: Klucel (hydroxypropylcellulose) (HPC)) was 123 % of control.

For CN(C)c1nc(N(C)C)nc(N(CCCl)CCCl)n1, the T/C (dose: 25.0 mg/kg/injection, schedule: Q04DX002 (ip), vehicle: saline) was 102 % of control, the T/C (dose: 50.0 mg/kg/injection, schedule: Q04DX002 (ip), vehicle: saline) was 106 % of control and the survivor count (dose: 100.0 mg/kg/injection, schedule: Q04DX002 (ip), vehicle: saline) was 0 of 6.
